The list shows a part of the results.
Target: OsWRKY34 (Oryza sativa, UniProt Q0JBA9 1-250)
Assay: protein-binding microarray (RPBM); PBS, 2% BSA, 51.3 ng/ul salmon testes DNA, 50 uM zinc acetate, 200 nM TF, 25 C, 1 h; high values mean tight binding
Details: protein: recombinant; tags: N-terminal polyhistidine and DsRed monomer fusion (pET32a); label: CyDye5-dUTP incorporated in the synthesized complementary strand; 3' TTTTT single-stranded linker to array surface; dsDNA, one strand shown
Procedure, shortened: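 For the binding signal, per-feature fluorescence intensity was read in arbitrary units on an Axon 4000B scanner. Before scanning, a 2% BSA-blocked custom Agilent array made double-stranded with Cy5-dUTP was washed after 1 h at 25 °C with 200 nM protein and 50 µM zinc acetate. The proteins were Ni–NTA-purified transcription factors with N-terminal polyhistidine and DsRed fusions, expressed in E. coli BL21-CodonPlus.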

Sequences of proteins named here, by UniProt entry; tags and fusion partners are left off.
UniProt Q0JBA9, entry or part of it: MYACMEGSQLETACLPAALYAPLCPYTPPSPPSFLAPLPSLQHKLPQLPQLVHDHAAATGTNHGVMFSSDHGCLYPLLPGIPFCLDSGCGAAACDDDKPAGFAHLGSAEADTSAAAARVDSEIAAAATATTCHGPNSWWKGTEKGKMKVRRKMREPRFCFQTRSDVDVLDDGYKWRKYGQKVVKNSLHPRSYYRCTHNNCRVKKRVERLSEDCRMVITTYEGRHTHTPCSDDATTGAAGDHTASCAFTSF

Sequence | binding signal
TATGTCCTCTGCGAATCTATGCAGACAATAAACAAGCTTCCGGAGTCACCTAGTGCAG | 8400 fluorescence intensity (a.u.)
TAATCTGTACATAACCACTGCTGCTTTGCTAACAGGCGCCCGGAGTCACCTAGTGCAG | 8380 fluorescence intensity (a.u.)
TCCTCAATTTGACTTGTACCGTGTAGCCATCGATTTTCTTCGGAGTCACCTAGTGCAG | 11500 fluorescence intensity (a.u.)
GCCTTTCGATACCTTAATTCTCGATATTTTTTCTTTTCACCGGAGTCACCTAGTGCAG | 12500 fluorescence intensity (a.u.)
TTTCCCACGTTTTGTCATTTTTTCAGCTATATATTAATTTCGGAGTCACCTAGTGCAG | 12000 fluorescence intensity (a.u.)
GGCTTGCCGCGCCGCCTCCTACCTCCCGGATTTCCTCCTTCGGAGTCACCTAGTGCAG | 8530 fluorescence intensity (a.u.)
ATTCATTAGGGTGTAATTTGTAAATTGTCTTGAGTCTTTACGGAGTCACCTAGTGCAG | 8280 fluorescence intensity (a.u.)
AATTTTGTCGTCCGATCCATATATTTTGCTCATCTTTTCCCGGAGTCACCTAGTGCAG | 8590 fluorescence intensity (a.u.)
CATTTCAAACCACAAGTATATCTCTACCATCCTATTTTTACGGAGTCACCTAGTGCAG | 9400 fluorescence intensity (a.u.)
CCTCACCACACGCGCCGTCTCCTCGATCACCACACGCGCACGGAGTCACCTAGTGCAG | 8430 fluorescence intensity (a.u.)
GCCGTCATAGCATCGATCGCCAGTTCGCCACAGCACAATGCGGAGTCACCTAGTGCAG | 8050 fluorescence intensity (a.u.)
GCTCTCAATCTCATCCTTTCGTCTATTCCTTGCAGTCTTGCGGAGTCACCTAGTGCAG | 8400 fluorescence intensity (a.u.)
TTCCTTCGCGATCTCACCCCGCGTGCCCTAGCTAGCTATCCGGAGTCACCTAGTGCAG | 8390 fluorescence intensity (a.u.)
CATTTTATTGTGAACTTTTTCCTTTTAAACTCGATGTTTACGGAGTCACCTAGTGCAG | 10700 fluorescence intensity (a.u.)
CTCTCTCTCTCTCTCTCTCTAGCTTCCACCTCCTGATCCACGGAGTCACCTAGTGCAG | 11000 fluorescence intensity (a.u.)
CTCCTACACTAGGTATACGTCCATATATAGCAATAATCACCGGAGTCACCTAGTGCAG | 8200 fluorescence intensity (a.u.)
CTTGGAGGTGGTTCAGGTGGAGGCGGCGGTCTCGGAGGTGCGGAGTCACCTAGTGCAG | 9240 fluorescence intensity (a.u.)
GTCACTTTTGCAGAGGCCGGGCTGCTGTTCTTCGTATTTACGGAGTCACCTAGTGCAG | 10800 fluorescence intensity (a.u.)
GTTTAGTAGACCTCCAACTCCTAAATTTAGGGCCATTTTTCGGAGTCACCTAGTGCAG | 8200 fluorescence intensity (a.u.)
AGCTATCATTTATGGATTTAACCGCGGTTTCTTTGTCTTTCGGAGTCACCTAGTGCAG | 11100 fluorescence intensity (a.u.)
CACTTCCTTCTCTAGGCTTATTAACAGCTTATTTCTGATCCGGAGTCACCTAGTGCAG | 9280 fluorescence intensity (a.u.)

3 records picked at random from the list so far, as already listed:
Sequence | binding signal
TTTCCCACGTTTTGTCATTTTTTCAGCTATATATTAATTTCGGAGTCACCTAGTGCAG | 12000 fluorescence intensity (a.u.)
GTCACTTTTGCAGAGGCCGGGCTGCTGTTCTTCGTATTTACGGAGTCACCTAGTGCAG | 10800 fluorescence intensity (a.u.)
CTCCTACACTAGGTATACGTCCATATATAGCAATAATCACCGGAGTCACCTAGTGCAG | 8200 fluorescence intensity (a.u.)

Continuation:

Sequence | binding signal
GATTAGTTGTGGATATCTGGTTTTCTGGTTTGGATGACAACGGAGTCACCTAGTGCAG | 8790 fluorescence intensity (a.u.)
GGCGACCCGCTTGTCTCACTCTCTCTCTGCTACAGCTAGCCGGAGTCACCTAGTGCAG | 9620 fluorescence intensity (a.u.)
TGCGTGTTGTGTGTGTGGGTGATCTTTGGCGCGCCTCGTCCGGAGTCACCTAGTGCAG | 8120 fluorescence intensity (a.u.)
CGTCCATTTTAGATCATGCGATGCTAGTTTGACTGCTTATCGGAGTCACCTAGTGCAG | 8520 fluorescence intensity (a.u.)
TGTCACATTTTTCGTCGTCTCCATCTTCATCTTCTTGTCGCGGAGTCACCTAGTGCAG | 11200 fluorescence intensity (a.u.)
CGTGGCTCCCTTTACATTACAGCGTAATCAAGCGTCATTACGGAGTCACCTAGTGCAG | 10300 fluorescence intensity (a.u.)
CAGGTACTGTAGTTGAATTCTTGTGTCAGTGTCACACTATCGGAGTCACCTAGTGCAG | 8900 fluorescence intensity (a.u.)
CAGTTTTCATCGTTAACGACCACTCGGGCGTGGTATTCGTCGGAGTCACCTAGTGCAG | 8420 fluorescence intensity (a.u.)
TCTTCTTTTTTTCACCCAGATCAAGGAGCCCTCAGAAATACGGAGTCACCTAGTGCAG | 8390 fluorescence intensity (a.u.)
CGGGTCTTGACTCTTGACCCTTCACATTTCGGTCAGCTCGCGGAGTCACCTAGTGCAG | 9150 fluorescence intensity (a.u.)
AGTTTAGGGGAGGGTTTCTCCTGAGGCTCTTATACCGTGTCGGAGTCACCTAGTGCAG | 14100 fluorescence intensity (a.u.)
ACCTTATTCTTGCACAAATCTTCAAGCACTTTCAGTGATGCGGAGTCACCTAGTGCAG | 8420 fluorescence intensity (a.u.)
CCACTTCTCGCCATGAAAACAGCGCCACAATTTCCAATTCCGGAGTCACCTAGTGCAG | 9660 fluorescence intensity (a.u.)
GGCGGCAGGGGCTATTTCTGCAATTTTTTTGGTTGATAGACGGAGTCACCTAGTGCAG | 11600 fluorescence intensity (a.u.)
ACAGCACATACATATGTAAGGATTTGTTTCCACAACCTCTCGGAGTCACCTAGTGCAG | 9590 fluorescence intensity (a.u.)
CTCGTGCGCCACCGTCCACCGTCGCCGAGCCGGTGCCATCCGGAGTCACCTAGTGCAG | 8710 fluorescence intensity (a.u.)
CTCATGATTTGGTTAGTAGTAGTTGGTTGGTTAGTTTACGCGGAGTCACCTAGTGCAG | 12000 fluorescence intensity (a.u.)
TTTTTTGTTTTCTCCTTTGCTCGGCTTCTGCTGGTCCTGACGGAGTCACCTAGTGCAG | 9360 fluorescence intensity (a.u.)
CGAACCAAGACAAGAAAATAGAACCATCCTATCTATCAGGCGGAGTCACCTAGTGCAG | 11500 fluorescence intensity (a.u.)
ATCACCACACAACCAATCGGCTGCACGATGCAATCAAACTCGGAGTCACCTAGTGCAG | 8030 fluorescence intensity (a.u.)
GAGCTTTGAATGCCAATCTTCACCACCATAGTAGTACTATCGGAGTCACCTAGTGCAG | 8470 fluorescence intensity (a.u.)
